The record followed here is patent publication US20210052580A1 (ST IP Holding AG, priority 2018, published 2021).

The test system of the data set is male Syrian Golden Hamsters. Conditions: Days −3 to 28. The method, then: Twenty-four (24) male Syrian Golden Hamsters were used in the study. Mucositis was induced by giving an acute radiation dose of 40 Gy directed to the left buccal cheek pouch on Day 0. Mucositis was evaluated clinically starting on Day 6 and continuing on alternate days until Day 28.
Mucositis was scored visually by comparison to a validated photographic scale, ranging from 0 for normal, to 5 for severe ulceration (clinical scoring). In descriptive terms, this scale is defined as described in Table 7 below: […]
A mucositis score of 3 or greater indicates ulcerative mucositis, a clinically significant threshold.
Statistical significance of observed differences was calculated using chi-squared analysis.
An analysis of the severity of mucositis was performed using the Mann-Whitney rank sum analysis to compare the visual mucositis scores for Groups 2 and 3 to the vehicle control group (Group 1) on each day of the analysis. In this analysis, 2 consecutive days of significant reduction in the mucositis score are generally required before it is regarded as clinically meaningful.
The significance of group differences observed in daily mucositis scores was determined using the Mann-Whitney rank sum test. This nonparametric statistic is appropriate for the visual mucositis scoring scale. The p-values for each calculation are shown. “x” denotes significant difference in mucositis scores. […]

Regarding `Cc1c(-c2cnccn2)ssc1=S` [Neat oltipraz, 4-methyl-5-(pyrazin-2-yl)-3H-1,2-dithiole-3-thione], the “percent body weight change” value is “gained weight at a slower rate than those administered placebo”.
